The source of these data is PMC7807754, “A novel protein encoded by circular SMO RNA is essential for Hedgehog signaling activation and glioblastoma tumorigenicity” (Genome Biology, 2021).

In this experiment the target is smoothened (SMO) (human (endogenous in 456 and 3691 CSCs)) (UniProt Q99835). Description: co-IP; in vivo IP between endogenous SMO and SMO-193a.a. in 456 and 3691 CSCs; co-IP soft RIPA lysis buffer, primary antibody at 4 °C overnight, protein A/G agarose, Western blotting.

No constants are given. Whether binding was seen depends on the method and setting. In cells and extracts the contact can be indirect. Some entries that bind do so weakly or less than the wild type.

B1: GFP-SMO-193a.a. (natural protein, human)
chain: MHSYIAAFGAVTGLCTLFTLATFVADWRNSNRYPAVILFYVNACFFVGSIGWLAQFMDGARREIVCRADGTMRLGEPTSNETLSCVIIFVIVYYALMAGVVWFVVLTYAWHTSFKALGTTYQPLSGKTSYFHLLTWSLPFVLTVAILAVAQVDGDSVSGICFVGYKNYRYRAGFVLAPIGLVLIVGGYFLIRE
notes: SMO (smoothened), human, amino acids 230-421; the open reading frame of circ-SMO; extra Glu at the C-terminal, not part of linear SMO; The plasmid for the GFP-tagged protein is not described; source: 293T, transfected, purified (anti-GFP antibody, Catch and Release v2.0 Reversible Immunoprecipitation System)
On to B1, for which the binding result was “binds”.
